According to patent publication US20120185955A1, “HEDGEHOG INHIBITOR ASSAY” (priority 2005, published 2012):
For at least one compound, name, drawing or mass did not settle the structure.

Tested on: Gli reporter activity in Ptch1−/− MEFs
Assay: 8×GliLuc luciferase reporter assay in Ptch1−/− MEFs
Type: cell-based, mouse
Conditions: 100 μM forskolin, one day

## C=C[C@@]1(C)CC(=O)[C@]2(O)[C@@]3(C)[C@@H](O)CCC(C)(C)[C@@H]3[C@H](O)[C@H](OC(C)=O)[C@@]2(C)O1 [forskolin]
  Suppression of the Gli-mediated response: almost complete suppression
